Test [1] deals with truncated PHOSPHATE STARVATION RESPONSE 1 (PHR1) carrying the GARP domain and CCD (208-362 aa), yeast two-hybrid fusion (Arabidopsis thaliana) (UniProt Q94CL7). Nature of the test: two-hybrid; yeast strain AH109; GAL4 activation domain fusions as prey, GAL4 DNA-binding domain fusions as bait; growth on SD/-Leu/-Trp/-His/-Ade, 30°C, 5 d.
Test [2] addresses T1, HRS1 HOMOLOG 4 (HHO4), full length, yeast two-hybrid fusion (Arabidopsis thaliana) (UniProt Q9ZQ85).
T1 sequence: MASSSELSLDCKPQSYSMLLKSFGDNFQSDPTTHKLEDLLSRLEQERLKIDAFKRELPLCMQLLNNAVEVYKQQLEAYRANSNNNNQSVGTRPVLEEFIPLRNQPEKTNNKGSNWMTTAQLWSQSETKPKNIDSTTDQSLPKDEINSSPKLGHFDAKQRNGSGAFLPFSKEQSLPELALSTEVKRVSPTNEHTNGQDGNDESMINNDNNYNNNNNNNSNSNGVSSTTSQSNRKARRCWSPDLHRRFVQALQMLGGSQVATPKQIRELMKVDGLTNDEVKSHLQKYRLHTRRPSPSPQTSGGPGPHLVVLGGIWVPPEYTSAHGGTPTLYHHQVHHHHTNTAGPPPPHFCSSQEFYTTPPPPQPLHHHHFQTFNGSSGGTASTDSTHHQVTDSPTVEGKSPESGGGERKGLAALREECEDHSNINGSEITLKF
The description is as above.

By UniProt entry, the sequences of proteins in these tests, tags left out. Residues count along the entry.
UniProt Q94CL7, residues 208-362: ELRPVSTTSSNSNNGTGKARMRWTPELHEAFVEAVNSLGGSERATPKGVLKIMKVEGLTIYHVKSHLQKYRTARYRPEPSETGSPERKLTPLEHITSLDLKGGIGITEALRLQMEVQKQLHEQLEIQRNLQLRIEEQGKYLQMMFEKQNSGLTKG

Results are given in words; binding and its absence hold for the method and conditions named. Some entries that bind do so weakly or less than the wild type. Sequences can lack the tags named with a protein.

B1: NIGT1.4, full length, yeast two-hybrid fusion (protein, UniProt Q9FX67 1-344)
chain: MIKKFSNMDYNQKRERCGQYIEALEEERRKIHVFQRELPLCLDLVTQAIEACKRELPEMTTENMYGQPECSEQTTGECGPVLEQFLTIKDSSTSNEEEDEEFDDEHGNHDPDNDSEDKNTKSDWLKSVQLWNQPDHPLLPKEERLQQETMTRDESMRKDPMVNGGEGRKREAEKDGGGGRKQRRCWSSQLHRRFLNALQHLGGPHVATPKQIREFMKVDGLTNDEVKSHLQKYRLHTRRPRQTVPNNGNSQTQHFVVVGGLWVPQSDYSTGKTTGGATTSSTTTTTGIYGTMAAPPPPQWPSHSNYRPSIIVDEGSGSHSEGVVVRCSSPAMSSSTRNHYVKNN
Take B1: the binding result in test [1] is recorded as “no binding”; in test [2], “binds”.

The values are drawn from article PMC7660924.
